Our source for the survivor count and T/C values is PubChem BioAssay AID330 (DTP/NCI, 2004).

The list is a part of this screen's results and no random one: it is rich in T/C values a quarter to a half above the control, in often repeated tests (any T/C) and in doses without a T/C. Other doses and runs of a compound stand elsewhere. T/C: endpoint of the treated group in % of that of the vehicle group. Some entries give survivors of the animals treated and no T/C: the source holds a T/C of zero for them, seemingly a mark for toxic or unscored doses. Some doses without a T/C left all or most animals alive at the check, yet need not have been tolerated: survival well below the control is almost never listed, so the zero probably covers shortened survival too. Survivors were counted at the toxicity check, usually on the fifth day, unless a day is given; later deaths do not show. Schedules are NCI's codes, read here as Q, the interval in days (D) or hours (H), X, the number of doses. Some doses were run more than once; the results are listed from low to high. For survival time, this PubChem deposit counts one and a half times the control or more as active, and values a quarter to a half above the control carry no call in these data; other NCI protocols may use other cut-offs. Some T/C values are followed by the survivors on the day toxicity was checked, most often the fifth; where none is given, no animal had died by that day.

For this assay, the system named is P388 leukemia ip, CD2F1 mice, survival T/C. The assay can be described thus: NCI In Vivo Anticancer Drug Screen. Data for tumor model P388 Leukemia (intraperitoneal) in CD2F1 (CDF1) mice. As to conditions: T/C endpoint: median survival time, higher T/C = longer survival.
Where [1] appears, read: dose: 120.0 mg/kg/injection, schedule: Q01DX005 (ip), vehicle: saline with Tween-80.
Where [2] appears, read: dose: 240.0 mg/kg/injection, schedule: Q01DX005 (ip), vehicle: saline with Tween-80.
Setting [3] is: dose: 100.0 mg/kg/injection, schedule: Q01DX005 (ip), vehicle: Klucel (hydroxypropylcellulose) (HPC).
Where [4] appears, read: dose: 100.0 mg/kg/injection, schedule: Q01DX009 (ip), vehicle: saline with Tween-80.
The mark [5] stands for this setting: dose: 200.0 mg/kg/injection, schedule: Q01DX001 (ip), vehicle: Klucel (hydroxypropylcellulose) (HPC).
The mark [6] stands for this setting: dose: 400.0 mg/kg/injection, schedule: Q01DX001 (ip), vehicle: Klucel (hydroxypropylcellulose) (HPC).
[7] abbreviates: dose: 120.0 mg/kg/injection, schedule: Q01DX005 (ip), vehicle: saline.
Setting [8] is: dose: 240.0 mg/kg/injection, schedule: Q01DX005 (ip), vehicle: saline.
Setting [9] is: dose: 200.0 mg/kg/injection, schedule: Q01DX005 (ip), vehicle: Klucel (hydroxypropylcellulose) (HPC).
Setting [10] is: dose: 60.0 mg/kg/injection, schedule: Q01DX005 (ip), vehicle: saline.
Setting [11] is: dose: 50.0 mg/kg/injection, schedule: Q01DX005 (ip), vehicle: saline with Tween-80.

`CCC(=O)c1c(O)c2ccccc2oc1=O`: the survivor count reads like this: under setting [1], 2 of 6; under setting [2], 0 of 6.

Consider `CCCCCCCCCCCC1=C(O)C(=O)C(CC2=C(O)C(=O)C(CCCCCCCCCCC)=C(O)C2=O)=C(O)C1=O`, for which the survivor count under setting [3] is 6 of 6.

For the molecule `CCCOC(=O)/C=C(\Br)C(=O)OCCC`, where the note is “dose: 25.0 mg/kg/injection, schedule: Q01DX009 (ip), vehicle: saline with Tween-80”, the T/C is 126 % of control. For the same molecule, the survivor count (dose: 50.0 mg/kg/injection, schedule: Q01DX009 (ip), vehicle: saline with Tween-80) is 2 of 6 and 6 of 6; the survivor count under setting [4] is 2 of 6; the survivor count (dose: 200.0 mg/kg/injection, schedule: Q01DX009 (ip), vehicle: saline with Tween-80) is listed as 1 of 6.

Turning to `O=C(NO)C1(Br)CCCCC1Br` (stereo unspecified), the survivor count is, setting by setting: under setting [5], 0 of 6; under setting [6], 0 of 6.

In the case of `Cc1cccc(/C=C/C(=O)C(C)CN(C)C)c1` (stereo unspecified), the survivor count is 2 of 6 under setting [7] and 0 of 6 under setting [8].

Take `CCC1(O)CC2CN(CCc3c([nH]c4ccccc34)C(C(=O)OC)(c3cc4c(cc3OC)N(C=O)C3C(O)(C(=O)OC)CC5(CC)C=CCN6CCC43C65)C2)C1` (stereo unspecified): the survivor count runs as follows: (dose: 16.0 mg/kg/injection, schedule: Q01DX001 (ip), vehicle: saline) 3 of 5; (dose: 32.0 mg/kg/injection, schedule: Q01DX001 (ip), vehicle: saline) 0 of 5 and 3 of 5.

Regarding `CN(C)CCCOc1cccc(NC2=C(Cl)C(=O)C(Nc3cccc(OCCCN(C)C)c3)=C(Cl)C2=O)c1`, the survivor count is, setting by setting: under setting [3], 1 of 5; under setting [9], 0 of 5.

For `COc1ccc2c(c1)N(C(=O)CNC(C)(C)C)c1ccccc1S2`, for the setting “dose: 400.0 mg/kg/injection, schedule: Q04DX002 (ip), vehicle: saline”, the survivor count is 1 of 6.

Consider `C=C(CN(C)C)C(=O)c1ccccc1Cl`, for which the survivor count is 0 of 6 (dose: 15.0 mg/kg/injection, schedule: Q01DX005 (ip), vehicle: saline); 0 of 6 (dose: 30.0 mg/kg/injection, schedule: Q01DX005 (ip), vehicle: saline); 0 of 6 under setting [10]; 0 of 6 under setting [7]; 0 of 6 under setting [8].

For the molecule `CC(=O)OC(C)(C)/C=C/C(=O)[C@](C)(O)[C@H]1[C@H](O)C[C@@]2(C)[C@@H]3CC=C4[C@@H](C=C(O)C(=O)C4(C)C)[C@]3(C)C(=O)C[C@]12C`, the survivor count (dose: 0.5 mg/kg/injection, schedule: Q01DX009 (ip), vehicle: saline with Tween-80) is 6 of 6.

For `Cc1nc2ccc(N)cc2oc1=O`, the survivor count reads like this: under setting [1], 1 of 6; under setting [2], 0 of 6.

With `CC(C)(C)C1=CC(=C/C=C/c2cc(C(C)(C)C)[o+]c(C(C)(C)C)c2)C=C(C(C)(C)C)O1`, the T/C was 127 % of control (dose: 6.25 mg/kg/injection, schedule: Q01DX009 (ip), vehicle: Klucel (hydroxypropylcellulose) (HPC)); 127 % of control (dose: 12.5 mg/kg/injection, schedule: Q01DX009 (ip), vehicle: Klucel (hydroxypropylcellulose) (HPC)); 127 % of control [5 of 6 alive] (dose: 25.0 mg/kg/injection, schedule: Q01DX009 (ip), vehicle: Klucel (hydroxypropylcellulose) (HPC)). For the same molecule, the survivor count is, setting by setting: (dose: 50.0 mg/kg/injection, schedule: Q01DX009 (ip), vehicle: Klucel (hydroxypropylcellulose) (HPC)) 0 of 6 and 4 of 6; (dose: 100.0 mg/kg/injection, schedule: Q01DX009 (ip), vehicle: Klucel (hydroxypropylcellulose) (HPC)) 0 of 6; (dose: 200.0 mg/kg/injection, schedule: Q01DX009 (ip), vehicle: Klucel (hydroxypropylcellulose) (HPC)) 0 of 6.

`CN1CCC2(CC1)COCc1ccccc12`: under setting [4], the survivor count was 4 of 6.

For `Cc1nc(Nc2ccccc2C)c2ccsc2n1`, under setting [9], the survivor count is reported as 6 of 6.

Turning to `O=C(CBr)N(O)c1ccccc1OCc1ccccc1`, the survivor count by setting is: (dose: 100.0 mg/kg/injection, schedule: Q01DX001 (ip), vehicle: saline) 2 of 6; (dose: 200.0 mg/kg/injection, schedule: Q01DX001 (ip), vehicle: saline) 0 of 6; (dose: 400.0 mg/kg/injection, schedule: Q01DX001 (ip), vehicle: saline) 0 of 6.

As for `N/N=C/c1cccn1-c1ccccc1Cl`, the survivor count under setting [2] is on record as 1 of 6.

In the case of `CCN(CC)CCN1C(=O)c2cccc3cc(N)cc(c23)C1=O`, the T/C (dose: 3.2 mg/kg/injection, schedule: Q01DX009 (ip), vehicle: saline with Tween-80) was 127 % of control. For the same molecule, under setting [4], the survivor count is 5 of 6.

Consider `CCOC(=O)N[C@H]1CCc2cc(O)c(OC)c(OC)c2-c2ccc(SC)c(=O)cc21`, for which the T/C (dose: 2.5 mg/kg/injection, schedule: Q01DX009 (ip), vehicle: Klucel (hydroxypropylcellulose) (HPC)) was 130 % of control and the T/C (dose: 5.0 mg/kg/injection, schedule: Q01DX009 (ip), vehicle: Klucel (hydroxypropylcellulose) (HPC)) was 125 % of control.

As for `Nc1cc2cccc[n+]2c2ccccc12`, the survivor count under setting [10] is 0 of 6, the survivor count under setting [7] was 0 of 6 and the survivor count under setting [8] is reported as 0 of 6.

Consider `CCC[CH2][Sn]([CH2]CCC)([S]CC(=O)OC)[S]CC(=O)OC`, for which the survivor count is 1 of 6 (dose: 50.0 mg/kg/injection, schedule: Q01DX001 (ip), vehicle: Klucel (hydroxypropylcellulose) (HPC)); 1 of 6 (dose: 100.0 mg/kg/injection, schedule: Q01DX001 (ip), vehicle: Klucel (hydroxypropylcellulose) (HPC)); 0 of 6 under setting [5]; 0 of 6 under setting [6].

As for `CC/C(=N\NC(=S)SC)c1ccccn1`, the T/C under setting [11] is 117, 127, 133 % of control. Besides, the survivor count is 6 of 6 under setting [11]; 4 of 6 and 4 of 5 (dose: 100.0 mg/kg/injection, schedule: Q01DX005 (ip), vehicle: saline with Tween-80); 2 of 5 (dose: 200.0 mg/kg/injection, schedule: Q01DX005 (ip), vehicle: saline with Tween-80).
